{
  "sequences": {"note": "By UniProt entry, the sequences of proteins in these tests, tags left out. Where a name states a change or a piece, a line headed by the entry shows the natural chain unless it says otherwise.", "UniProt P51450": "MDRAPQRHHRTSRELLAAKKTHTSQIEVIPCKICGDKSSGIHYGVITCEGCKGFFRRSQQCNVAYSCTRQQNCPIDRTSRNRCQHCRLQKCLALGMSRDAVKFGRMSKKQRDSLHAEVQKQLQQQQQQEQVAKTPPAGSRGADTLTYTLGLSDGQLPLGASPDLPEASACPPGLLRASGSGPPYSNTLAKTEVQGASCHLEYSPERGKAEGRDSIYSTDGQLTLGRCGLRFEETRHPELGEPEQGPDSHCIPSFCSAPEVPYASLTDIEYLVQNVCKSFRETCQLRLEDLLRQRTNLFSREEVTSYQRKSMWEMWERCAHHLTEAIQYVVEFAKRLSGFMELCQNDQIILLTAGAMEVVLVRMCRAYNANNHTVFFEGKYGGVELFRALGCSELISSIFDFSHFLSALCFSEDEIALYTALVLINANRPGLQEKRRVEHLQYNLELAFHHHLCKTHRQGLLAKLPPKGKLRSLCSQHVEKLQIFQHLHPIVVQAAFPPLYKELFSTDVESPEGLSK"},
  "source": "PubChem BioAssay AID2551",
  "about": "(National Center for Advancing Translational Sciences (NCATS), 2010)",
  "note": "The whole screen tested about 310,000 compounds, of which about 17,000 (5.5%) were called active. The shares of active, inactive and inconclusive entries below differ from those in the screen. The call rests on the fitted dose curve; in most records, active means well fitted inhibition curve with a large enough effect; inconclusive means small, poorly fitted or top-dose-only effect, or effect the other way; inactive means no such curve, though single readings can be large or run the other way. A potency beside an inconclusive call is a rough fit, not a confirmed value. Potency means the concentration at half of the fitted maximal effect.",
  "data": [
    {"target": "Nuclear receptor ROR-gamma (Mus musculus) (UniProt P51450)", "test": "qHTS for inhibitors of ROR gamma transcriptional activity; further: nearly all actives have a fitted effect of over 60% in size", "settings": "Drosophila S2 Gal4-RORgamma UAS-luciferase reporter, 20 h; series mostly up to 53.6 µM", "in_short": "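Stably transfected Drosophila Schneider cells are the test system, with ROR gamma fused to Gal4 and luciferase under UAS control; luminescence is read after 20 hr of 700 uM copper sulfate induction at ambient temperature.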", "values": [
      {"smiles": "CC1=NNC(=O)c2ccccc2O1", "Potency": "inconclusive: 22.4 µM [inhibitor, single point]"},
      {"smiles": "C(=N\\Nc1ncnc2sc3c(c12)CCC3)/c1ccncc1", "Potency": "active: 10 µM"},
      {"smiles": "CN(C)CCc1cc2c(c3c1ccc1ccccc13)OCO2", "Potency": "inconclusive: 1.26 µM [inhibitor, partial curve]"},
      {"smiles": "Oc1ccc(Cl)cc1C(C#Cc1ccccc1)N1CCOCC1", "note": "(stereo unspecified)", "Potency": "inconclusive: 6.31 µM [inhibitor, single point]"},
      {"smiles": "CCOc1ccc(C(=O)NCC2CCCO2)cc1", "note": "(stereo unspecified)", "Potency": "inconclusive: 0.282 µM [activator, full curve, poor fit]"},
      {"smiles": "NC(=O)c1ccc(CSc2nc3ccccc3s2)cc1", "Potency": "inconclusive: 14.1 µM [activator, single point]"},
      {"smiles": "Cc1ccc(-c2nc3ncccn3c2NC2CCCC2)o1", "Potency": "inconclusive: 25.1 µM [inhibitor, single point]"},
      {"smiles": "O=C(NCCOC(=O)c1ccc([N+](=O)[O-])cc1)c1cccnc1", "Potency": "inactive"},
      {"smiles": "Cn1nnc(NC(=S)NC(=O)Cc2ccccc2)n1", "Potency": "active: 1.41 µM"},
      {"smiles": "O=C(NCc1cccnc1)C(=O)NC1CCCCC1", "Potency": "inconclusive: 6.31 µM [inhibitor, single point]"},
      {"smiles": "O=C(Nc1ccccc1F)c1coc(=O)c(Br)c1", "Potency": "inactive"},
      {"smiles": "N/C(Cc1ccc([N+](=O)[O-])cc1)=N\\OC(=O)c1ccc2ccccc2c1", "Potency": "inconclusive: 3.16 µM [inhibitor, full curve, poor fit]"},
      {"smiles": "O=C1C2C3C=CC(C3)C2C(=O)N1/N=C/c1cc(Br)cc([N+](=O)[O-])c1O", "note": "(stereo unspecified)", "Potency": "inconclusive: 35.5 µM [inhibitor, single point]"},
      {"smiles": "CCOCCCNC(=S)N(Cc1ccccc1)Cc1nc2ccccc2c(=O)[nH]1", "Potency": "active: 11.2 µM"},
      {"smiles": "O=S(=O)(Nc1cc(Sc2ncn[nH]2)c(O)c2ccccc12)c1ccccc1", "Potency": "active: 7.94 µM"},
      {"smiles": "O=C(Cc1ccccc1[N+](=O)[O-])NC1CC2CCC1C2", "note": "(stereo unspecified)", "Potency": "inactive"},
      {"smiles": "CCC(C)c1ccc(NC(=O)c2ccco2)cc1", "note": "(stereo unspecified)", "Potency": "active: 20 µM"},
      {"smiles": "Cc1ccc(S(=O)(=O)N(C)C)cc1NC(=O)c1c(-c2c(F)cccc2Cl)noc1C", "Potency": "inconclusive: 31.6 µM [activator, single point]"},
      {"smiles": "CC(C)C[C@@H](CC(=O)N[C@@H](CCCN)CC(=O)N[C@@H]1CCCC[C@H]1C(=O)N[C@H](CC(=O)N[C@@H](CCC(=O)O)CC(=O)O)Cc1ccccc1)NC(=O)[C@@H]1CNCC[C@H]1N", "Potency": "inactive"},
      {"smiles": "Cc1ccccc1OCC(=O)Nc1ccccc1NC(=O)c1ccco1", "Potency": "inactive"},
      {"smiles": "Oc1ccc(C(=S)N2CCCCCC2)cc1", "Potency": "inactive"},
      {"smiles": "S=C(Nc1ccc2nsnc2c1)N1CCCCC1", "Potency": "inconclusive: 17.8 µM [inhibitor, single point]"},
      {"smiles": "Cc1ccc(-n2c(=O)cc(N3CCCCCC3)[nH]c2=O)cc1", "Potency": "inconclusive: 35.5 µM [activator, single point]"},
      {"smiles": "O=C(O)COc1ccc(Oc2ccccc2)cc1", "Potency": "inconclusive: 5.01 µM [inhibitor, single point]"},
      {"smiles": "O=[N+]([O-])c1ccc(Oc2cccc(Br)c2)c2ccncc12", "Potency": "inconclusive: 12.6 µM [inhibitor, single point]"},
      {"smiles": "Cc1ccc2oc(C(=O)N3CCC(O)(c4cccc(C(F)(F)F)c4)CC3)c(C)c2c1", "Potency": "inconclusive: 35.5 µM [activator, single point]"},
      {"smiles": "COC1=C/C(=C/c2c(N)n3nc(-c4ccc(C)cc4)sc3nc2=O)C=CC1=O", "Potency": "inconclusive: 35.5 µM [inhibitor, single point]"},
      {"smiles": "C=CCOC(=O)C1=C(C)NC(SCC(=O)OCC)=C(C#N)C1c1ccc(C)cc1", "note": "(stereo unspecified)", "Potency": "inconclusive: 12.6 µM [inhibitor, single point]"},
      {"smiles": "Cc1cccc(C(=O)Nc2nnc(-c3ccco3)o2)c1", "Potency": "active: 0.501 µM"},
      {"smiles": "NS(=O)(=O)c1ccc(Nc2nc(-c3ccccc3)cs2)cc1", "Potency": "inconclusive: 10 µM [activator, partial curve]"},
      {"smiles": "Cc1conc1NC(c1cccs1)c1ccc2cccnc2c1O", "note": "(stereo unspecified)", "Potency": "active: 2.51 µM"},
      {"smiles": "COCCNc1cc(C)nc2cc(-c3ccc(C)cc3)nn12", "Potency": "inconclusive: 1.12 µM [activator, full curve, poor fit]"},
      {"smiles": "Cc1nn(-c2ccccc2Cl)c(Cl)c1/C=N/Nc1nc2ccccc2s1", "Potency": "active: 1 µM"},
      {"smiles": "CC(C)(C)c1ccc(C(=O)N2CCCCCC2=O)cc1", "Potency": "inconclusive: 0.316 µM [inhibitor, full curve, poor fit]"},
      {"smiles": "CS(=O)(=O)OCC(O)C(O)COS(C)(=O)=O", "note": "(stereo unspecified)", "Potency": "inactive"},
      {"smiles": "CCc1ccc(N(CC(=O)Nc2ccc(NC(C)=O)cc2)S(=O)(=O)c2ccccc2)cc1", "Potency": "inconclusive: 12.6 µM [activator, partial curve]"},
      {"smiles": "Cc1cc(C)cc(OCC(=O)Nc2ccncc2)c1", "Potency": "inconclusive: 35.5 µM [activator, single point]"},
      {"smiles": "COc1cc(OC)cc(-c2nc3ccccc3c(=O)n2OC(=O)c2ccc(C)c(C)c2)c1", "Potency": "inconclusive: 20 µM [inhibitor, single point]"},
      {"smiles": "O=C(Cn1c(=O)oc2ccccc21)N1CCN(c2ccccc2)CC1", "Potency": "inconclusive: 12.6 µM [inhibitor, single point]"},
      {"smiles": "CCCCCOc1ccc(C(=O)Nc2ccc(S(=O)(=O)Nc3cc(C)on3)cc2)cc1", "Potency": "inactive"},
      {"smiles": "Cn1nc([N+](=O)[O-])nc1Oc1ccccc1F", "Potency": "inactive"},
      {"smiles": "COCCN1CCN(Cc2nc(C3(c4ccc(C)cc4)CCCC3)no2)CC1", "Potency": "inactive"},
      {"smiles": "CC(=O)Oc1ccc2ccccc2c1C(NC(=O)Cc1ccccc1)c1ccc(Cl)cc1", "note": "(stereo unspecified)", "Potency": "inconclusive: 0.708 µM [activator, full curve]"},
      {"smiles": "C/C(=N\\N=C(N)N)c1ccc(C)c(C)c1", "Potency": "inactive"},
      {"smiles": "CC1=C(C(=O)OC(C)C)C(c2cccs2)NC(=O)N1", "note": "(stereo unspecified)", "Potency": "inactive"},
      {"smiles": "Cc1cc(C)c(C)c(S(=O)(=O)ON2C(=O)c3ccccc3C2=O)c1C", "Potency": "inconclusive: 22.4 µM [inhibitor, single point]"},
      {"smiles": "COc1ccc(C2C=C(c3ccccc3)Nc3ncnn32)cc1", "note": "(stereo unspecified)", "Potency": "inactive"},
      {"smiles": "Cc1cc(N2CCOCC2)nc2ccc(NC(=S)N3CCN(c4ccccc4)CC3)cc12", "Potency": "inconclusive: 20 µM [inhibitor, single point]"},
      {"smiles": "Cc1c(C)c2c(OCC(=O)Nc3cccnc3)cc3c(c2oc1=O)CCC(C)(C)O3", "Potency": "inactive"},
      {"smiles": "COc1ccc(C(=O)NC(=S)N2CCN(c3ccccc3OC)CC2)cc1OC", "Potency": "active: 2.82 µM"},
      {"smiles": "Cc1cc(C)nc(NC(=O)NC(=O)c2ccccc2)n1", "Potency": "inactive"},
      {"smiles": "C/C(=N\\NC(=O)c1ccco1)c1cc(Cl)sc1Cl", "Potency": "inconclusive: 2.51 µM [activator, partial curve, poor fit]"},
      {"smiles": "CCS(=O)(=O)Nc1ccc(Cc2ccc(NS(=O)(=O)CC)cc2)cc1", "Potency": "active: 1.26 µM"},
      {"smiles": "CC(=O)c1ccc(NC(=O)C2C3C=CC(O3)C2C(=O)O)cc1", "note": "(stereo unspecified)", "Potency": "inactive"},
      {"smiles": "Cc1ccccc1NC(=O)COC(=O)c1ccccc1SCC(=O)N1CCCC1", "Potency": "inactive"},
      {"smiles": "COc1cc(Cl)c(C)cc1NC(=O)Cc1cccs1", "Potency": "inactive"},
      {"smiles": "COc1cc(O)c(C(CCN2CCOCC2)c2ccc3c(c2)OCO3)c(OC)c1", "note": "(stereo unspecified)", "Potency": "inactive"},
      {"smiles": "Cn1c(CCc2ccc(N)cc2)nc2ccccc21", "Potency": "active: 11.2 µM"},
      {"smiles": "COc1ccc(N2C(=O)/C(=C\\c3ccco3)N=C2SCC(=O)NC(C)(C)C)cc1Cl", "Potency": "inconclusive: 2.24 µM [activator, partial curve]"},
      {"smiles": "C=CCNC(=O)c1ccc2c3n(nc2c1)-c1ccccc1CO3", "Potency": "inconclusive: 11.2 µM [inhibitor, partial curve, poor fit]"},
      {"smiles": "Cc1ccc(-c2nc3n(n2)Cc2ccccc2-3)cc1", "Potency": "inconclusive: 11.2 µM [inhibitor, partial curve, poor fit]"},
      {"smiles": "CCc1nnc(NC(=O)c2ccc(Cl)c(S(=O)(=O)N3CCc4ccccc43)c2)s1", "Potency": "active: 20 µM"},
      {"smiles": "O=C(OCC(=O)c1cccs1)c1ccccc1", "Potency": "inactive"},
      {"smiles": "S=C(Nc1cccc2ccccc12)N1CCN(c2ncccn2)CC1", "Potency": "inconclusive: 35.5 µM [inhibitor, single point]"},
      {"smiles": "Cc1ccsc1C1C=C(c2cccc(Br)c2)Nc2ncnn21", "note": "(stereo unspecified)", "Potency": "active: 7.94 µM"},
      {"smiles": "CCCCn1c(NC(=O)c2ccco2)c(S(=O)(=O)c2ccc(C)cc2)c2nc3ccccc3nc21", "Potency": "inconclusive: 8.91 µM [activator, partial curve]"},
      {"smiles": "C/C(=N\\NC(=O)C1CC1)c1ccc(OC(F)F)cc1OC(F)F", "Potency": "inconclusive: 12.6 µM [inhibitor, single point]"},
      {"smiles": "N#C/C(=C(\\O)CCl)c1nnc2n1CCCCC2", "Potency": "inconclusive: 35.5 µM [inhibitor, single point]"},
      {"smiles": "OCCN(Cc1ccccc1)CC(O)COc1ccc(-c2ccccc2)cc1", "note": "(stereo unspecified)", "Potency": "inconclusive: 12.6 µM [inhibitor, single point]"},
      {"smiles": "COc1ccc(CCNC(=O)c2cc(-c3ccccc3OC)on2)cc1OC", "Potency": "inactive"},
      {"smiles": "Cc1c(Nc2nc(-c3cccc([N+](=O)[O-])c3)cs2)c(=O)n(-c2ccccc2)n1C", "Potency": "inconclusive: 12.6 µM [activator, partial curve]"},
      {"smiles": "COc1ccc(Cn2c(/C=C/c3ccccc3)nc3ccccc32)cc1", "Potency": "active: 7.08 µM"},
      {"smiles": "Cc1cccc(C(=O)NC(=S)N(C)C2CCCCC2)c1", "Potency": "active: 1.78 µM"},
      {"smiles": "COC(=O)C1CCN(C(=O)Cc2ccc(Br)cc2)CC1", "Potency": "inconclusive: 11.2 µM [activator, single point]"},
      {"smiles": "COc1ccccc1C(=O)Nc1ccc(Cc2ccncc2)cc1", "Potency": "inconclusive: 14.1 µM [activator, single point]"},
      {"smiles": "CCCN(CC(=O)Nc1cc(Cl)ccc1Cl)C(=O)CN1C(=O)C2CCCCC2C1=O", "note": "(stereo unspecified)", "Potency": "inconclusive: 12.6 µM [inhibitor, partial curve]"}
    ]}
  ]
}
